This assay has as its target SipB (tag-free, purified) (S. Typhimurium) (UniProt Q56019). In words: ITC; both purified. On the technique in general: Isothermal titration calorimetry measures the heat released or taken up as one component is titrated into another.

Protein sequences, listed by entry. Tags and fused reporters are not part of them. Lines headed by an entry give the natural chain unless they say otherwise; changes in a name come on top.
UniProt Q56019: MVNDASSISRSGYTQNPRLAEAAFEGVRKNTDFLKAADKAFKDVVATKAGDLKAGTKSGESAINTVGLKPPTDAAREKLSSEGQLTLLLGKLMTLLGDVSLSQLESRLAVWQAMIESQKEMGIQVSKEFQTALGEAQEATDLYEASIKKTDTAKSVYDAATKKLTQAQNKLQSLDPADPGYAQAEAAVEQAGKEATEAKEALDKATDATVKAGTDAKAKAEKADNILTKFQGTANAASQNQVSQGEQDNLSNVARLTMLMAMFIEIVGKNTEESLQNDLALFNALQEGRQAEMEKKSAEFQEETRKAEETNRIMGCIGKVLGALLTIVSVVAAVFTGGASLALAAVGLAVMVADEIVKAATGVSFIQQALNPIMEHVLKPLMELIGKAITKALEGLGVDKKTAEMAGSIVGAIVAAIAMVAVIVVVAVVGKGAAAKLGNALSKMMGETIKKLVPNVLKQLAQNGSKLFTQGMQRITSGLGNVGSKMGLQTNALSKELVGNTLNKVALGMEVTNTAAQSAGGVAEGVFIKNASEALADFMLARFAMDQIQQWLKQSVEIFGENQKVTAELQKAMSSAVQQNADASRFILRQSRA
UniProt P69066: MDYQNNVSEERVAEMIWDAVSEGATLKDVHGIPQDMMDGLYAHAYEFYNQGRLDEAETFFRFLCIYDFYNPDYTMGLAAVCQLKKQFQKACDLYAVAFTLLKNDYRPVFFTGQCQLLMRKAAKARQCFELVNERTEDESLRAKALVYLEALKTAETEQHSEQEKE

Results are given in words; binding and its absence hold for the method and conditions named. Binding calls can cover weak binding; strength is not graded here.

Turning to “SicA (tag-free, purified) (from UniProt P69066 1-165)”, the binding result is reported as “binds”.

The record behind these values is paper PMC9637222, “Autoinducer-2 and bile salts induce c-di-GMP synthesis to repress the T3SS via a T3SS chaperone” (Nature Communications, 2022).
